Reference: patent publication US8309718B2, “4-pyrazolyl-N-arylpyrimidin-2-amines and 4-pyrazolyl-N-heteroarylpyrimidin-2-amines as janus kinase inhibitors” (Incyte Corporation, priority 2007, dated 2012)

Amino acid sequences for entries named in this document (tags omitted). Residues count along the entry.
UniProt O60674, 828-1132: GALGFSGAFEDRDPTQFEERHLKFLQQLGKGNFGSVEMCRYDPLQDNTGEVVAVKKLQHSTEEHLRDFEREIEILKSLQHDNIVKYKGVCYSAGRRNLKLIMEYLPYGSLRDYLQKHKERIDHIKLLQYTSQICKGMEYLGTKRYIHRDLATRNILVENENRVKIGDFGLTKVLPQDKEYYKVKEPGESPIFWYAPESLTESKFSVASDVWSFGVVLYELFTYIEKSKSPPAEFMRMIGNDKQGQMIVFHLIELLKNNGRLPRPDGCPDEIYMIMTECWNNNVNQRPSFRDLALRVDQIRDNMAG

Biological target: T1, human JAK2 (Homo sapiens, UniProt O60674)
T1 construct: JAK2 (a.a. 828-1132); His tag (N); made in house; host or cells: insect cells (baculovirus)
Test: In vitro JAK kinase assay (HTRF, phosphorylation of biotinylated peptide)
Assay type: biochemical
Settings: catalytic domain a.a. 828-1132, 30 μM ATP, 500 nM peptide, room temperature 1 hr; read-out: JAK-2 IC50
Protocol: Compounds herein were tested for inhibitory activity of JAK targets according to the following in vitro assay described in Park et al, Analytical Biochemistry 1999, 269, 94-104. The catalytic domains of human JAK1 (a.a. 837-1142), JAK2 (a.a. 828-1132) and JAK3 (a.a. 781-1124) with an N-terminal His tag were expressed using baculovirus in insect cells and purified. The catalytic activity of JAK1, JAK2 or JAK3 was assayed by measuring the phosphorylation of a biotinylated peptide. The phosphorylated peptide was detected by homogenous time resolved fluorescence (HTRF). IC50s of compounds were measured for each kinase in the reactions that contain the enzyme, ATP and 500 nM peptide in 50 mM Tris (pH 7.8) buffer with 100 mM NaCl, 5 mM DTT, and 0.1 mg/mL (0.01%) BSA. The ATP concentration in the reactions was 90 μM for JAK1, 30 μM for Jak2 and 3 μM for JAK3. Reactions were carried out at room temperature for 1 hr and then stopped with 20 μL 45 mM EDTA, 300 nM SA-APC, 6 nM Eu-Py20 in assay buffer (Perkin Elmer, Boston, Mass.). Binding to the Europium labeled antibody took place for 40 minutes and HTRF signal was measured on a Fusion plate reader (Perkin Elmer, Boston, Mass.). Certain of the above compounds were tested according to this assay.

IC50: < 100 nM
SMILES: N#CCC(C1CCOCC1)n1cc(-c2ccnc(Nc3ccc(C(=O)NC4CCOCC4)cc3)n2)cn1 (racemic) [Example 309, 4-[(4-{1-[2-cyano-1-(tetrahydro-2H-pyran-4-yl)ethyl]-1H-pyrazol-4-yl}pyrimidin-2-yl)amino]-N-(tetrahydro-2H-pyran-4-yl)benzamide]
